Patent US4280993A, “Process for determining the concentration of benzodiazepines in a body fluid” (priority 1978, dated 1981)

Legend:
[1] = tested on: rat brains
[2] = tested on: brain membranes; settings: cited from earlier work

SMILES	specific binding capacity, hippocampus [1]	specific binding, frontal and occipital cortex versus pons-medulla [1]	specific binding to brain membranes [2]
CN1C(=O)CN=C(c2ccccc2)c2cc(Cl)ccc21 [^3 H-diazepam]	intermediate binding capacity	four times higher	–
CN1C(=O)CN=C(c2ccccc2)c2cc(Cl)ccc21 [diazepam]	–	–	specifically binds to brain membranes with high affinity
